Test results: PMC6796730
Results are given in words; binding and its absence hold for the method and conditions named. Binding seen in cells or lysates may run through a third protein.

Sequences of proteins named here, by UniProt entry; tags and fusion partners are left off. Residues count along the entry.
UniProt P10145, residues 21-99: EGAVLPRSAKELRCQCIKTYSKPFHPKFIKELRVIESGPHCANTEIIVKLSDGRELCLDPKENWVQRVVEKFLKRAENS
UniProt Q09472: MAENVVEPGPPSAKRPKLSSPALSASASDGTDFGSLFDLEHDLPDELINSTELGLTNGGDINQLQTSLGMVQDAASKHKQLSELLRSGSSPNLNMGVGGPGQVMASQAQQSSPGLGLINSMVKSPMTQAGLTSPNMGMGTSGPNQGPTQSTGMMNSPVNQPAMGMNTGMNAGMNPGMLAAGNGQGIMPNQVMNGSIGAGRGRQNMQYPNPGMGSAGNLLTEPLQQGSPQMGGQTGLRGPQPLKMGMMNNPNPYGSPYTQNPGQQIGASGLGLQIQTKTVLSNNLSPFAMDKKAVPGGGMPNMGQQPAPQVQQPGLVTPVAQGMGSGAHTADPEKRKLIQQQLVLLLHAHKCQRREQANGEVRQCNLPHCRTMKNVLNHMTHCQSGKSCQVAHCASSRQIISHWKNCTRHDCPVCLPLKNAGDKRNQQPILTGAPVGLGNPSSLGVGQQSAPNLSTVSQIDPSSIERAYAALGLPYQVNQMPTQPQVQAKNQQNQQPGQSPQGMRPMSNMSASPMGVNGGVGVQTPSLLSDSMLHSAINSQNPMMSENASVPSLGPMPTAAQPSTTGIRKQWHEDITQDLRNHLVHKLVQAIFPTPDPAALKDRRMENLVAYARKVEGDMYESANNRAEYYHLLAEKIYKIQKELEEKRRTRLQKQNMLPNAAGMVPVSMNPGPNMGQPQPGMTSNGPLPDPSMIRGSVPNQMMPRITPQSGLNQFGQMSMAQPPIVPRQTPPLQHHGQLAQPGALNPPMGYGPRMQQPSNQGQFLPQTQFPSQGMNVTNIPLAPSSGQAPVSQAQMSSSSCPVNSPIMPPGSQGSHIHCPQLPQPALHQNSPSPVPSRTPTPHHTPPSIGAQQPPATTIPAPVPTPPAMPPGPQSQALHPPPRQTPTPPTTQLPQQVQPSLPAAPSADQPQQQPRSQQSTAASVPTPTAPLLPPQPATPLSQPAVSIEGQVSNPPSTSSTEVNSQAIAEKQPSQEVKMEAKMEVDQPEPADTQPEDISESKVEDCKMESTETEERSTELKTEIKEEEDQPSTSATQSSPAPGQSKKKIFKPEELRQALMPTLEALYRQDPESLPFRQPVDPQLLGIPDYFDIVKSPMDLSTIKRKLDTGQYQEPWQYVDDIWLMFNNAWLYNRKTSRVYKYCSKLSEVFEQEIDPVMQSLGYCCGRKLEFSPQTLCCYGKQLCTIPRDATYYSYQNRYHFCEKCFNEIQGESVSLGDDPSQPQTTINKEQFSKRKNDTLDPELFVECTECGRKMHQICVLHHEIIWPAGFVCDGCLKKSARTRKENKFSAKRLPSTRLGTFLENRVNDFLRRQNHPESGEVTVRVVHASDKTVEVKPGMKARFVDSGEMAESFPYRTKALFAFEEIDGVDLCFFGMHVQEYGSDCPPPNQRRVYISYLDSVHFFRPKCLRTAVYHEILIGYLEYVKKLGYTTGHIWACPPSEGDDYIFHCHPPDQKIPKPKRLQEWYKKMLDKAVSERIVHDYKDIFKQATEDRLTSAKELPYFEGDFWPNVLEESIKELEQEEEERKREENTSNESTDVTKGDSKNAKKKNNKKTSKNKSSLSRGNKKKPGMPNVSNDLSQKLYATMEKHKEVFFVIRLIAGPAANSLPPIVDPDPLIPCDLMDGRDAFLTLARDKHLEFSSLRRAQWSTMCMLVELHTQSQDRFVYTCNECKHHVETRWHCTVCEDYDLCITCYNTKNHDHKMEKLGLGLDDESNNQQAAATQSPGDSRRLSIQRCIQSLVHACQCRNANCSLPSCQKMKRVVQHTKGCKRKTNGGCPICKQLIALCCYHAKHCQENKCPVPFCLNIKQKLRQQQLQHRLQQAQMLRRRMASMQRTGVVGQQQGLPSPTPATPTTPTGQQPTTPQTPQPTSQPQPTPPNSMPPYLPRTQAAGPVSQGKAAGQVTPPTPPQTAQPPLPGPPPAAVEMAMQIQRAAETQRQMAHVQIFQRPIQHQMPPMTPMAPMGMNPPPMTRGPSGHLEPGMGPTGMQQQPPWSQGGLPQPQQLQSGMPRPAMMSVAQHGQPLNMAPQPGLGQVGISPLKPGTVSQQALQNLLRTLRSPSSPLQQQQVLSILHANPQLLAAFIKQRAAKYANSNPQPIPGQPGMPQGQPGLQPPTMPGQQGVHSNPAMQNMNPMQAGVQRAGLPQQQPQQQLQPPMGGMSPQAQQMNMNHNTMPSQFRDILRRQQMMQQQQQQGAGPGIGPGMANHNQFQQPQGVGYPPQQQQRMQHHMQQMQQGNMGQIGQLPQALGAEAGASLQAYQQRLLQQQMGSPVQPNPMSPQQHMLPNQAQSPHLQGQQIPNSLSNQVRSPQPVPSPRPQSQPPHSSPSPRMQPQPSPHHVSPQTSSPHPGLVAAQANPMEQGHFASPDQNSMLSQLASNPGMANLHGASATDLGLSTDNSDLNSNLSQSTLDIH

Target: interleukin-8 (IL-8) (UniProt P10145)
Test: co-IP; lysate of cells transfected with pCDNA3-HA-p300 incubated overnight with anti-IL-8 antibody and Sepharose beads; washed three times with cold lysis buffer; SDS-PAGE and western blot; IgG as negative control, CBP as positive control

Q: How did the binding turn out when “p300 (histone acetyltransferase p300), HA-tagged, from pCDNA3-HA-p300 (from UniProt Q09472 1-2414)” was run?
A: no binding
